Source: publication PMC11798926
These are yes or no findings as the source states them, for the method shown. Binding seen in cells or lysates may run through a third protein. Some binding calls cover weakened binding; strength is not graded here. For some assays here: Tags and fused reporters may be left off the sequences shown. One block for each binder: values may come before it.

Protein sequences, listed by entry. Tags and fused reporters are not part of them.
UniProt Q96CW1: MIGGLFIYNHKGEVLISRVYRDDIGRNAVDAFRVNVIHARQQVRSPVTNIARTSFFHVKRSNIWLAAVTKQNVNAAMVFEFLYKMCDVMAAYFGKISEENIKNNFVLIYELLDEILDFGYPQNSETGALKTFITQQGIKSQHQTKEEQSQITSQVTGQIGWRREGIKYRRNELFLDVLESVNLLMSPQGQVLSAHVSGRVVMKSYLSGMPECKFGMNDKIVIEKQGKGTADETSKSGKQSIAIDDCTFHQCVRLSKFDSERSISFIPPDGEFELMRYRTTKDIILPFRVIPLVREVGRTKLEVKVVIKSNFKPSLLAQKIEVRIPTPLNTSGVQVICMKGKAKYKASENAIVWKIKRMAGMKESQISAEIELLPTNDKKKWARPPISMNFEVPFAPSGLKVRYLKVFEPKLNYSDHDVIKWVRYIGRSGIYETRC

How the values were obtained:
Experiment in all cases: co-IP; HEK293T cells co-transfected with SynDIG (or IFITM3) and HA-tagged μAP subunit; lysate on α-HA magnetic beads for 90 min at RT; myc-tagged protein detected by immunoblot; values normalised to eluted μ protein and to input
HA-tagged μ2 AP subunit = HA-tagged μ2 AP subunit (UniProt Q96CW1)
HA-tagged μ4 AP subunit = molecular target: T1, HA-tagged μ4 AP subunit (UniProt O00189)
T1 sequence: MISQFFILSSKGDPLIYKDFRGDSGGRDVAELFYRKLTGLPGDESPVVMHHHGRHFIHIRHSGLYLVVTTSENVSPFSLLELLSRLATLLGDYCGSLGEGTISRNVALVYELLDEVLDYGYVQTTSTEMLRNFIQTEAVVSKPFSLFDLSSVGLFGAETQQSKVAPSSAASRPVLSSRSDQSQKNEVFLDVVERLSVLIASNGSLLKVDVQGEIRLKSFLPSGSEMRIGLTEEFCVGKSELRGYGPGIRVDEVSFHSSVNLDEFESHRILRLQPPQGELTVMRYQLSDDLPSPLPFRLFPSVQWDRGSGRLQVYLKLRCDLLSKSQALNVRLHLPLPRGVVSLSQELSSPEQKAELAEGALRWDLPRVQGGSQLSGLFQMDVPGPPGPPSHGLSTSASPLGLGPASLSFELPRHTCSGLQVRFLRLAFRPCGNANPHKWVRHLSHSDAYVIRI

HA-tagged μ3a AP subunit = molecular target: T2, HA-tagged μ3a AP subunit (UniProt Q9Y2T2)
T2 sequence: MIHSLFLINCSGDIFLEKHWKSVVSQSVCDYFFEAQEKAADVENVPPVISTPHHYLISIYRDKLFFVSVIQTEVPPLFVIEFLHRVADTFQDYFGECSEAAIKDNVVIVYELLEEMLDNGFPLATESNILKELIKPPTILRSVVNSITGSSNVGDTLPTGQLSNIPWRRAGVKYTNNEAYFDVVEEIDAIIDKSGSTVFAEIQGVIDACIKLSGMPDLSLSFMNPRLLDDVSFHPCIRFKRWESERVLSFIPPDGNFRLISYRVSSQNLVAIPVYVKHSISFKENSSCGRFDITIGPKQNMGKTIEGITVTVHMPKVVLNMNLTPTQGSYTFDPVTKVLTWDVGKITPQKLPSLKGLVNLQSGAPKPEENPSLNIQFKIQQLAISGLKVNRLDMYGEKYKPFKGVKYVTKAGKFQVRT

HA-tagged μ1a AP subunit = molecular target: T3, HA-tagged μ1a AP subunit (UniProt Q9BXS5)
T3 sequence: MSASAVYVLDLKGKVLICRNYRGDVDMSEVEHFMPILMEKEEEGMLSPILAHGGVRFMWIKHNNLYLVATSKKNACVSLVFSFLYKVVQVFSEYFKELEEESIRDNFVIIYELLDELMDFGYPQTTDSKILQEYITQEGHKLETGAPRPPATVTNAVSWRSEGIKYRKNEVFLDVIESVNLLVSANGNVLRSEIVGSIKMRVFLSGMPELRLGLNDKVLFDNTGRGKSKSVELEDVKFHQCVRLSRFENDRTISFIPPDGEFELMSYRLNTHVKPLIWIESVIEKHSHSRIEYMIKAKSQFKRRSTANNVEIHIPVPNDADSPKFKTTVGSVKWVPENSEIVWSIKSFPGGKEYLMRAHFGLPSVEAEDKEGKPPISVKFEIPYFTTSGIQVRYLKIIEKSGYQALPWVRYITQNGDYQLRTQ

binding (HA-tagged μ2 AP subunit): binds
B1: SynDIG4∆170–89 (protein, UniProt Q6MG82)
chain: MSSEKSGLPDSVPHTSPPPYNAPQPPAEPPIPPPQTAPSSHHHHHHHYHQSGTATLPRLGAGGLASAAAGAQRGPSSSATLPRPPHHAPPGPAAGAPPPGCATLPRMPPDPYLQETRFEGPLPPPPPAAAAPPPPAPAPTAQAPGFVVPTHAGAVGTLPLGGYVAPGYPSGTPGGPGVTSTLPPPPQGPGLALLEPRRPPHDYMPIAVLTTICCFWPTGIIAIFKAVQVRTALARGDLVSAEIASREARNFSFISLAVGIAAMVLCTILTVVIIIAAQHHENYWDP

binding (HA-tagged μ2 AP subunit): no binding | binding (HA-tagged μ4 AP subunit): no binding | binding (HA-tagged μ3a AP subunit): no binding | binding (HA-tagged μ1a AP subunit): no binding
B2: SynDIG2 (wild type) (protein, UniProt Q3USQ7 1-237)
chain: MESLSELQNPLLPRSPTHLHRPYPYPEAPPGWSCQEQLYSFLLGGAGPARAHQLLDPGSLQLAVEAWYRPSCLLGRDKVKEPKAGSCETSFTEAREPLAGPAEEGSEPGQAAEDVTIHTVSYGVQEELQGQEDSQEEESDGTSSESECEDAFLTLPPRDHLGLTLFSMLCCFWPLGIAAFYFSQGTSKAISKGDFRLASTTSRRALFLATLSIAVGAGLYVAVVVALAAYMSQNGHG
